Article PMC3830475

Legend:
[1] = molecular target: T1, ERS1 (residues 130–613) (Arabidopsis) (UniProt Q38846); experiment: two-hybrid; yeast strain L40; ETR1^331–729 or ERS1^130–613 in pBTM116 co-expressed with OsCTR2^1–513 in pGADT7; growth in the presence of high 3-amino-1,2,4-triazole concentrations, X-gal staining (80 mg/l, 24 h, 30 °C) and β-galactosidase activity with chlorophenol red–β-D-galactopyranoside
T1 sequence: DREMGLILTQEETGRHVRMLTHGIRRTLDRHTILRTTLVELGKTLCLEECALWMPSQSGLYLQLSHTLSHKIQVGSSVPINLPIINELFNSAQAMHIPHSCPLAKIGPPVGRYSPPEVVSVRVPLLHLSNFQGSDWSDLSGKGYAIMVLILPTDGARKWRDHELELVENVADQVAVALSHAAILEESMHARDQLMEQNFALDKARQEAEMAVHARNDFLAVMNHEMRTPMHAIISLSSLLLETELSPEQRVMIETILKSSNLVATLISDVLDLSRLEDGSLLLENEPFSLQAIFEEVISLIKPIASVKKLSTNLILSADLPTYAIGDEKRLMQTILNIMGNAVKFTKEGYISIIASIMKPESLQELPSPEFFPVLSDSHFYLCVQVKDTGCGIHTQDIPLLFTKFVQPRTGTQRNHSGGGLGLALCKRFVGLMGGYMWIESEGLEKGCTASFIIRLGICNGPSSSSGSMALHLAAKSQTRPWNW

[2] = molecular target: T2, ETR1 (residues 331–729) (Arabidopsis) (UniProt P49333); experiment: as above
T2 sequence: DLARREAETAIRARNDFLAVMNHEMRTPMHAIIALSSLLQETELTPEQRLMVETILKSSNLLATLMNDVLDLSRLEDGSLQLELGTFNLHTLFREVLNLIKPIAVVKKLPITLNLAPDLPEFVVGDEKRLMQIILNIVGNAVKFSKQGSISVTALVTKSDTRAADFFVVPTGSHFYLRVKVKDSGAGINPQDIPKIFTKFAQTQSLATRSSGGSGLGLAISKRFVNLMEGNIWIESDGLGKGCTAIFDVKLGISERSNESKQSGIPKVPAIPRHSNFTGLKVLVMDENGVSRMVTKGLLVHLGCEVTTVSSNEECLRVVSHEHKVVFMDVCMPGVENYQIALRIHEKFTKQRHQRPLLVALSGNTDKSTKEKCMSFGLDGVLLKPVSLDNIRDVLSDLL

Substance: OsCTR2 N terminus (residues 1–513) (rice) (domain or fragment)
- binding [1]: binds
- binding [2]: binds

These are yes or no findings as the source states them, for the method shown. Binding calls can cover weak binding; strength is not graded here.
